In article PMC8884900 one finds binding data, which are given here for one molecule.

Protein sequences, listed by entry. Tags and fused reporters are not part of them. Residues count along the entry.
UniProt P12023, residues 18-770: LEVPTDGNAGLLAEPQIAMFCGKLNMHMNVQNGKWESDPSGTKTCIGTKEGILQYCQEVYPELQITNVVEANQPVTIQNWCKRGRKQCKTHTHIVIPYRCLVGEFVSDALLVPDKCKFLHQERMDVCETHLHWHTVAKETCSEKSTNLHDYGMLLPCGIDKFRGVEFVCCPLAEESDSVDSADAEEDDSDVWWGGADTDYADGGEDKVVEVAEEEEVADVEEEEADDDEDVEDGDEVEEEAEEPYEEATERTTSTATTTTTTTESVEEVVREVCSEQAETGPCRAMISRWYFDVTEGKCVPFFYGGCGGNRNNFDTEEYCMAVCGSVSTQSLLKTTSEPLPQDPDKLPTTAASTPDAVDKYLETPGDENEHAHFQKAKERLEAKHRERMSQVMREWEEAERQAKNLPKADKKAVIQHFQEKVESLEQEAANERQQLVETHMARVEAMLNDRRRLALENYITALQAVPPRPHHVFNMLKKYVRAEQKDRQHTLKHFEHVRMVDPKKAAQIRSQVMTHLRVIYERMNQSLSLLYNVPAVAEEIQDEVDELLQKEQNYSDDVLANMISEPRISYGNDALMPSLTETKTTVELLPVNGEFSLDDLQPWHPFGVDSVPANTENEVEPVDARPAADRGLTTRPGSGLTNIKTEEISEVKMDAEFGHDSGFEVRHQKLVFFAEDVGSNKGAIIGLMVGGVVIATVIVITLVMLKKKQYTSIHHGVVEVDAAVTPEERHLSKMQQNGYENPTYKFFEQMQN

Results are given in words; binding and its absence hold for the method and conditions named. In cells and extracts the contact can be indirect. Some entries that bind do so weakly or less than the wild type.

The target of this experiment is APP (endogenous, mouse cortex) (mouse (endogenous in C57BL/6 cortex)) (UniProt P12023). Put plainly: co-IP; endogenous proteins in C57BL/6 mouse cortical lysates; rabbit IgG as negative control.

B1: USP25 (endogenous, mouse cortex) (enzyme, UniProt P57080 1-1055)
chain: MTVEQNVLQQSAAQKHQQTFLNQLREITGINDAQILQQALKDSNGNLELAVAFLTAKNAKTPPQEETGYYQTALPGNDRYISVGSQADANVIDLTGDDKDDLQRAIALSLAESNRAFRETGITDEEQAISRVLEASIAENKACLKRTPIEVWRDSRNPYDRKRQEKAPVGLKNVGNTCWFSAVIQSLFNLLEFRRLVLNYKPPSNAQDLPRNQKEHRNLPFMRELRYLFALLVGTKRKYVDPSRAVEILKDAFKSNDSQQQDVSEFTHKLLDWLEDAFQMKAEEETDEEKPKNPMVELFYGRFLAMGVLEGKKFENTEMFGQYPLQVNGFKDLHECLEAAMIEGEIESLHSDNSGKSGQEHWFTELPPVLTFELSRFEFNQALGRPEKIHNKLEFPQVLYLDRYMHRNREITRIKREEIKRLKDYLTVLQQRLERYLSYGSGPKRFPLVDVLQYALEFASSKPVCTSPVDDIDASSSASGPLPSQSLPSTTEQQGPCASDLPGSSSPASGAALPLRSVIHKPFTQSRIPPDLPMHPAPRHITEEELCVLESCLHRWRTEIENDTRDLQESISRIHRTIELMYSDKSMIQVPYRLHAVLVHEGQANAGHYWAYIFDHRESRWMKYNDIAVTKSSWEELVRDSFGGYRNASAYCLMYIDDKAQFLIQEEFNKETGQALVGMETLPPDLRDFVEEDNQRFEKELEEWDTQLAQRSLQEKLLAAPKLREAEASATTAQAGGADYLEQPSRSDLSKHWKEETLRVIAKASHDLEDKGPETVLQSAIKLEYSRLVKLAQEDTPPETDYRLHHVLVYFIQNQAPKKIIEKTLLEQFGDRNLSFDERCHNIMKVAQAKLEMIKPEEVNLEEYEEWHADYKKFRETTMYLITGLENFQRESYIDSLLFLLCAYQNNKELLSKGPYRGHDGELISHYRRECLLKLNEQAAELFESGEDGDVNNGLIIMNEFIVPFLPLLLVDDMEEKDILAVEDMRNRWCSYLGQEMEANLQEKLTDFLPKLLDCSTEIKGFHEPPKLPSYSAHELCERFARIMLSLSRTPADGR
With B1, the binding result is “binds”.
